Paper PMC4226561
No constants are given. Whether binding was seen depends on the method and setting. Binding seen in cells or lysates may run through a third protein. Some binding calls cover weakened binding; strength is not graded here. Sequences can lack the tags named with a protein.

Molecular target: T1, CESA6, full length, split-YFP (BiFC) fusion (Arabidopsis thaliana), Q94JQ6
T1 chain: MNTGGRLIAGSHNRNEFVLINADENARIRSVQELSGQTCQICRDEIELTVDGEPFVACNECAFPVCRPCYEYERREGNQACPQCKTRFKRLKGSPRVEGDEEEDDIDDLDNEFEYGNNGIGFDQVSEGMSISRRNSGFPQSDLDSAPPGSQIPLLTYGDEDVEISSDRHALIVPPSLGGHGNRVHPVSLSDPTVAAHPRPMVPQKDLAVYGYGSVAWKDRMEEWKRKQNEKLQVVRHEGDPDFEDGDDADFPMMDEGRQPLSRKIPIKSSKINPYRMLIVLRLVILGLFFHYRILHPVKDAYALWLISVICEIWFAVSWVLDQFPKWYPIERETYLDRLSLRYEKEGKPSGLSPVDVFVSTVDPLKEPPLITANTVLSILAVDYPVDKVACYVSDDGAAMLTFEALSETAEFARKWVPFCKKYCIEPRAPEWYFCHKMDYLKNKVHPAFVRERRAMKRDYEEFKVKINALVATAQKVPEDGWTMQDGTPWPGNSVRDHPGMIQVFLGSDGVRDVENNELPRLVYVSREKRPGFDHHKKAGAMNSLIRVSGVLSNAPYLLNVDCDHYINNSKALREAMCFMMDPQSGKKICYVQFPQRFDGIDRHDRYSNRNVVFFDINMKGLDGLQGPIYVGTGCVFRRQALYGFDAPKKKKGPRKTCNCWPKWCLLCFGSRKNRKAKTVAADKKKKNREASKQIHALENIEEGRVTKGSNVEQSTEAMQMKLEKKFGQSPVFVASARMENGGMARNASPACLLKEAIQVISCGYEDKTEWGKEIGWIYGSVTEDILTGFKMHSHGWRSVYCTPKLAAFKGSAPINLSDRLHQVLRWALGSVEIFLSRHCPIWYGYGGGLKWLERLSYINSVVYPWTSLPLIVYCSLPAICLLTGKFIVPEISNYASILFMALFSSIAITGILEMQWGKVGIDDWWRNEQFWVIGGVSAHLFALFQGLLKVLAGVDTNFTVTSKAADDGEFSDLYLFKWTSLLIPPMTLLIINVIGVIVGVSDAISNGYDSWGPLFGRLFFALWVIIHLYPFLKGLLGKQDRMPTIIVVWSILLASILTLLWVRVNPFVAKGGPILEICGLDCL
Experiment: split reporter; BiFC: Y/N and Y/C fragments of YFP each linked to the N-terminus of the proteins, transiently expressed in leaves of 3-week-old N. benthamiana; YFP fluorescence by confocal microscopy 3 days after infiltration
Conditions: remark: other sources report otherwise

B1: KORRIGAN1 (KOR1), full length, split-YFP (BiFC) fusion, Q38890 1-621 (protein)
chain: MYGRDPWGGPLEINTADSATDDDRSRNLNDLDRAALSRPLDETQQSWLLGPTEQKKKKYVDLGCIIVSRKIFVWTVGTLVAAALLAGFITLIVKTVPRHHPKTPPPDNYTIALHKALKFFNAQKSGKLPKHNNVSWRGNSGLQDGKGETGSFYKDLVGGYYDAGDAIKFNFPMAYAMTMLSWSVIEYSAKYEAAGELTHVKELIKWGTDYFLKTFNSTADSIDDLVSQVGSGNTDDGNTDPNDHYCWMRPEDMDYKRPVTTCNGGCSDLAAEMAAALASASIVFKDNKEYSKKLVHGAKVVYQFGRTRRGRYSAGTAESSKFYNSSMYWDEFIWGGAWMYYATGNVTYLNLITQPTMAKHAGAFWGGPYYGVFSWDNKLAGAQLLLSRLRLFLSPGYPYEEILRTFHNQTSIVMCSYLPIFNKFNRTNGGLIELNHGAPQPLQYSVNAAFLATLYSDYLDAADTPGWYCGPNFYSTSVLRDFARSQIDYILGKNPRKMSYVVGFGTKYPRHVHHRGASIPKNKVKYNCKGGWKWRDSKKPNPNTIEGAMVAGPDKRDGYRDVRMNYNYTEPTLAGNAGLVAALVALSGEEEATGKIDKNTIFSAVPPLFPTPPPPPAPWKP
  binding: binds
